Results reported in PubChem BioAssay AID504444 (National Center for Advancing Translational Sciences (NCATS), 2011).
Several values for one entry are separate records, joined by “and”; a condition that tells them apart may be missing. Equal values may be shown once. The whole screen tested about 360,000 compounds, of which about 7,500 (2.1%) were called active. The inconclusive results got no clear call from the source; some entries with a clear call stand among them for comparison. The call rests on the fitted dose curve; in most records, active means well fitted inhibition curve with a large enough effect; inconclusive means small, poorly fitted or top-dose-only effect, or effect the other way; inactive means flat fitted curve, though single readings scatter. A potency beside an inconclusive call is a rough fit, not a confirmed value.

assay: Nrf2 qHTS screen for inhibitors; details: A549 ARE-Fluc reporter, luciferase luminescence, 18-24 h; series mostly up to 46 µM; further: nearly all actives have a fitted effect of over 60% in size
Outline: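 Two sequential reads on A549 ARE_Fluc cells exposed to compound for 18-24 h: a CellTiter-Fluor fluorescence read for viability, then a luciferase luminescence read for Nrf2/ARE activity.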
Potency means the concentration at half of the fitted maximal effect.

| Compound | Potency |
| --- | --- |
| O=C(CN1CCCC1)Nc1sc2c(c1C(=O)Nc1ccccc1)CCCC2 | inconclusive: 25.9 µM [activator, partial curve, poor fit] |
| Cc1ccc(NC(=O)/C=C/c2ccco2)nc1 | inconclusive: 11.6 µM [activator, partial curve, poor fit] |
| CN1CCN(NC(=O)c2cc(-c3ccc(Cl)s3)nc3ccccc23)CC1 | inactive |
| Cc1cc(C)n2ncc(C(=O)Nc3cccc(C#N)c3)c2n1 | inconclusive: 3.9 µM [activator, single point] |
| Cc1ccc(S(=O)(=O)Nc2c(C)nn(C)c2C)c(C)c1 | inconclusive: 18.4 µM [falling, single point] |
| Cc1cc(Cl)ccc1OCCCC(=O)Nc1cc(S(=O)(=O)N2CCOCC2)ccc1N1CCOCC1 | inconclusive: 23.1 µM [falling, single point] |
| CCOc1ccc2nc(SCC(=O)NCC3CCCO3)c(C#N)cc2c1 (stereo unspecified) | inconclusive: 25.9 µM [activator, single point] |
| COc1ccc(C(=O)O/N=C(\N)c2ccc(OC)c(OC)c2)cc1 | inconclusive: 8.2 µM [activator, partial curve, poor fit] |
| COCCCNc1c2c3c(cccc3[nH]c1=O)C(=O)c1ccccc1-2 | inconclusive: 20.6 µM [falling, partial curve, poor fit] |
| Cc1ccnc(NC(=O)c2cccc3ccccc23)c1 | inconclusive: 10.3 µM [activator, partial curve, poor fit] |
| O=C(Cc1coc2ccc3ccccc3c12)NCc1ccccc1 | inconclusive: 4.11 µM [falling, full curve] |
| COc1ccc(N=C2SCC(=O)N2CCc2ccc(OC)c(OC)c2)cc1 | inconclusive: 23.1 µM [falling, single point] |
| Cc1ccc(NC(=O)C(Cc2c[nH]c3ccccc23)NC(=O)OC(C)(C)C)c(C)c1 (stereo unspecified) | inactive |
| COc1cccc(CNC(=O)C2CCC(CNS(=O)(=O)c3ccc4c(c3)CCCC(=O)N4)CC2)c1 (stereo unspecified) | inconclusive: 25.9 µM [activator, partial curve] |
| OCCOCCOc1ccccc1OCCOCCO | inconclusive: 6.51 µM [activator, single point] |
| CC(C)=CCC/C(C)=C/CNC(=O)C[C@H]1C[C@H](C(=O)N2CCCCC2)[C@@]2(C)c3[nH]c4cc(-c5ccco5)ccc4c3CCN2C1=O | inconclusive: 18.4 µM [falling, single point] |
| CC(OC(=O)c1ccccc1Oc1ccccc1)C(=O)NC1CC1 (stereo unspecified) | inconclusive: 25.9 µM [falling, single point] |
| Cc1ccc(Nc2nc3nonc3nc2Nc2cccc(C(F)(F)F)c2)cc1Cl | active: 3.26 µM |
| CCOC(=O)C1=C(CN2CCN(c3ccc(OC)cc3)CC2)NC(=O)NC1c1ccc(OC)cc1 (stereo unspecified) | inconclusive: 18.4 µM [falling, single point] |
| COc1ccc(C2NC(=S)NC3=C2CCCC3=C2SCCS2)cc1 (stereo unspecified) | inconclusive: 1.84 µM [activator, partial curve, poor fit] |
| CCn1c(SCC(=O)c2[nH]c(C)c(C(C)=O)c2C)nnc1-c1cccs1 | inconclusive: 14.6 µM [falling, partial curve] |

| Compound | Potency |
| --- | --- |
| COc1ccc(C(=O)NOCc2ccccc2)cc1 | inconclusive: 29.1 µM [falling, single point] |
| CN(C(=O)CSc1nnc(-c2ccccc2)o1)c1c(N)n(Cc2ccccc2)c(=O)[nH]c1=O | inconclusive: 5.17 µM [activator, partial curve, poor fit] |
| CC1CCCN(C(=O)c2ccc(NS(=O)(=O)c3cccc([N+](=O)[O-])c3)cc2)C1 (stereo unspecified) | inconclusive: 23.1 µM [falling, partial curve, poor fit] |
| Cc1ccc(-n2nnnc2SCc2nc3sc(C)c(C)c3c(=O)[nH]2)cc1 | inactive |
| CCCCC1(O)CC(C(F)(F)F)=NN1C(=O)COc1ccccc1 (stereo unspecified) | active: 16.4 µM |
| CCCCNc1c(-c2ccc(OC)c(SC(C)CC)c2)nc2cnccn12 (stereo unspecified) | inconclusive: 20.6 µM [falling, single point] |
| COc1ccc2c(C)cc(=O)[nH]c2c1 | inconclusive: 29.1 µM [falling, single point] |
| Cc1onc(-c2ccccc2)c1C(=O)OCC(=O)NC(C)c1ccc(Cl)cc1 (stereo unspecified) | inconclusive: 29.1 µM [falling, single point] |
| Cc1ccc(S(=O)(=O)NCc2ccc(C(=O)N3CCc4ccccc4C3)cc2)cc1 | inconclusive: 32.6 µM [falling, single point] |
| Cc1cc(C)n(-c2ccc(C(=O)Nc3cccc(S(=O)(=O)N(C)C)c3)cc2)n1 | active: 18.4 µM |
| Cc1nc(N2CCCC2)c2c(C(=O)N3CCN(c4ccccc4)CC3)c(C)oc2n1 | inconclusive: 32.6 µM [activator, single point] |
| Cc1cc(C)c2c(n1)sc1c(N3CCCCC3)ncnc12 | inconclusive: 1.46 µM [falling, partial curve, poor fit] |
| O=C(CSc1nccn(-c2ccc(Br)cc2)c1=O)NCc1ccccc1 | inactive |
| CCOc1cc2sc(N3CCC(C(=O)Nc4ccc(CC)cc4)CC3)nc2cc1Br | inconclusive: 5.8 µM [activator, full curve, poor fit] |
| CC(=O)N1CCCc2cc(S(=O)(=O)N3CCCC(C(=O)N4CCN(c5cccc(Cl)c5)CC4)C3)ccc21 (stereo unspecified) | active: 7.31 µM |
| CCOC(=O)C1=C(C)N=c2s/c(=C/c3cccc([N+](=O)[O-])c3O)c(=O)n2C1c1ccccc1 (stereo unspecified) | inconclusive: 13 µM [falling, partial curve] |
| CCc1ccc(C(=O)c2cn(CC(=O)Nc3ccc(Cl)cc3)c3cc4c(cc3c2=O)OCO4)cc1 | inconclusive: 29.1 µM [falling, single point] |
| CCOc1ccc(CNC(=O)c2cccc(NC(=O)N3CCSc4ncccc43)c2)cc1OC | inconclusive: 9.2 µM [falling, partial curve, poor fit] |
| Cc1nc(Nc2ccc(O)cc2)c2c3c(sc2n1)CCCC3 | inconclusive: 23.1 µM [falling, single point] |
| CCN(CC)c1ccc2nc3ccccc3[n+](CC)c2c1 | active: 9.2 µM |
| CC[C@]12c3[nH]c4cc(-c5ccco5)ccc4c3CCN1C(=O)[C@@H](CC(=O)NC/C=C(\C)CCC=C(C)C)C[C@@H]2C(=O)N1CCN(C(=O)C2CC2)CC1 | inconclusive: 29.1 µM [falling, single point] |

Three records drawn at random from those above:

| Compound | Potency |
| --- | --- |
| Cc1ccc(S(=O)(=O)NCc2ccc(C(=O)N3CCc4ccccc4C3)cc2)cc1 | inconclusive: 32.6 µM [falling, single point] |
| CC(=O)N1CCCc2cc(S(=O)(=O)N3CCCC(C(=O)N4CCN(c5cccc(Cl)c5)CC4)C3)ccc21 (stereo unspecified) | active: 7.31 µM |
| CCOC(=O)C1=C(C)N=c2s/c(=C/c3cccc([N+](=O)[O-])c3O)c(=O)n2C1c1ccccc1 (stereo unspecified) | inconclusive: 13 µM [falling, partial curve] |

Later entries:

| Compound | Potency |
| --- | --- |
| COc1ccccc1NC(=O)C(C)OC(=O)CSCC(=O)Nc1ccc(C)cc1C (stereo unspecified) | inactive |
| CCOC(=O)N1CCN(C(=O)c2nn(-c3ccc(C)cc3)c(=O)c3c2c2ccccc2n3C)CC1 | inconclusive: 29.1 µM [falling, single point] |
| Cc1ccc(S(=O)(=O)NNC(=O)C(=O)NNc2ccccn2)cc1 | inconclusive: 3.66 µM [falling, single point] |
| CN1CCN(C(=O)/C(=C/c2cccnc2)NC(=O)c2cccc(Br)c2)CC1 | inconclusive: 18.4 µM [falling, single point] |
| COc1ccc(NC(=O)CN2CCN(CC(=O)Nc3ccc(F)cc3F)CC2)cc1 | inconclusive: 0.058 µM [activator, full curve, poor fit] |
| c1ccc2c(c1)CCN(C1=Nc3cccc4cccc1c34)C2 | inconclusive: 13 µM [activator, partial curve] |
| O=C(NCCc1ccccc1)c1nn(-c2ccccc2F)nc1CO | inconclusive: 18.4 µM [falling, single point] |
| O=C(Nc1cccc(Cl)c1)Nc1nc(-c2ccc(Cl)cc2)cs1 | inconclusive: 23.1 µM [falling, partial curve, poor fit] |
| CC1(C)CC(=O)/C(=C(\O)CCCN2C(=O)c3ccccc3C2=O)C(=NCC(=O)O)C1 | inconclusive: 20.6 µM [activator, partial curve, poor fit] |
| CCCSC1=C(C#N)C(c2ccc(OC)cc2)C2=C(CC(C)(C)CC2=O)N1 (stereo unspecified) | active: 23.1 µM |
| Cc1cc(C)c(NC(=O)CN(C2CCCCC2)C2CCCCC2)c(C)c1 | inconclusive: 0.82 µM [falling, partial curve, poor fit] |
| COc1cc(NC(=O)c2[nH]c(C)c(C(C)=O)c2C)cc(OC)c1OC | inconclusive: 10.3 µM [falling, partial curve] |
| COCCNC(=O)CCC(=O)NNc1nc2ccccc2c2nc(C)nn12 | inconclusive: 3.26 µM [activator, partial curve, poor fit] |
| Oc1ccc(/C=C/c2cnccn2)cc1 | inconclusive: 20.6 µM [activator, single point] |
| CS(=O)(=O)N1CCc2cc(C(=O)N3CCN(c4cccc(Cl)c4)CC3)ccc21 | inconclusive: 29.1 µM [falling, single point] and inconclusive: 18.4 µM [falling, single point] |
| C=CCNc1cc(C)oc(=O)c1C(=O)CC | inconclusive: 4.11 µM [falling, full curve, poor fit] |
| Cc1ccc(C)c(N2CCN(C(=O)c3cn(CC(C)C)c(=O)c4c3c3ccccc3n4C)CC2)c1 | inconclusive: 20.6 µM [falling, partial curve] |
| COc1ccc(CC2(CO)CCN(CC3=Cc4cc(Cl)ccc4OC3)CC2)cc1 | active: 13 µM |
| CCC(C)Sc1nc2c(cnn2-c2ccc(F)cc2)c(=O)[nH]1 (stereo unspecified) | inconclusive: 16.4 µM [falling, partial curve, poor fit] |
